This note sets out measurements from publication PMC3542344.

No constants are given. Whether binding was seen depends on the method and setting. Binding seen in cells or lysates may run through a third protein. A yes stands for co-enrichment or nearness to the bait. Other partners may have been found.

In this assay the target is T1, CD133 (human (endogenous in CCC stem cells)) (UniProt O43490).
T1 sequence: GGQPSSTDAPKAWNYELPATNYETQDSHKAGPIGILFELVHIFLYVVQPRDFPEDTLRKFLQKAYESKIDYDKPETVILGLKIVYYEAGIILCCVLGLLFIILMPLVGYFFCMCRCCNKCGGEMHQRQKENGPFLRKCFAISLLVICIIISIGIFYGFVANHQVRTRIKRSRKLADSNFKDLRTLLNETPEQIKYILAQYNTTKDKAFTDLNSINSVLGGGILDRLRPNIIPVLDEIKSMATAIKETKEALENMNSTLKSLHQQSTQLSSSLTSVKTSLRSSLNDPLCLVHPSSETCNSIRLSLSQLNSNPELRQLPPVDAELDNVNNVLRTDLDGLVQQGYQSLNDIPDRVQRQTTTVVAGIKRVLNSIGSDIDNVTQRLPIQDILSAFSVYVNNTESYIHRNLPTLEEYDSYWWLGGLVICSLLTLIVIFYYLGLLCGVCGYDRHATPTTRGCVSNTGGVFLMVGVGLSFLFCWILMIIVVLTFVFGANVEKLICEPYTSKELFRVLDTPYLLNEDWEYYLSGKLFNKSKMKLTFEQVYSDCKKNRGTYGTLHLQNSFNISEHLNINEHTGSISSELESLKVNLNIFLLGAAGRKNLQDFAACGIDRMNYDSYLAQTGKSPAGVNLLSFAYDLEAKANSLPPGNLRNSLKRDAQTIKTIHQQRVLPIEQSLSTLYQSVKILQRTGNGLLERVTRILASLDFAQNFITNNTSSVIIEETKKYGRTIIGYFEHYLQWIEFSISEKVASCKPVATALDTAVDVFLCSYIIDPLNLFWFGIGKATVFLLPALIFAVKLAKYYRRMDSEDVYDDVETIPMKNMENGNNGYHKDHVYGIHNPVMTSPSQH
The assay is described as follows: affinity purification with mass spectrometry; endogenous CD133 immunoprecipitated from the membrane fraction of CCC stem cells with anti-CD133 immobilised to Activated CH-Sepharose 4B; lysis buffer 50 mM HEPES-NaOH pH 7.5, 150 mM NaCl, 1% NP40, 1 mM dithiothreitol; 4 h at 4°C; eluted with 100 mM Glycine-HCl; LC-MS.

B1: plakoglobin (protein, UniProt P14923 1-745)
chain: MEVMNLMEQPIKVTEWQQTYTYDSGIHSGANTCVPSVSSKGIMEEDEACGRQYTLKKTTTYTQGVPPSQGDLEYQMSTTARAKRVREAMCPGVSGEDSSLLLATQVEGQATNLQRLAEPSQLLKSAIVHLINYQDDAELATRALPELTKLLNDEDPVVVTKAAMIVNQLSKKEASRRALMGSPQLVAAVVRTMQNTSDLDTARCTTSILHNLSHHREGLLAIFKSGGIPALVRMLSSPVESVLFYAITTLHNLLLYQEGAKMAVRLADGLQKMVPLLNKNNPKFLAITTDCLQLLAYGNQESKLIILANGGPQALVQIMRNYSYEKLLWTTSRVLKVLSVCPSNKPAIVEAGGMQALGKHLTSNSPRLVQNCLWTLRNLSDVATKQEGLESVLKILVNQLSVDDVNVLTCATGTLSNLTCNNSKNKTLVTQNSGVEALIHAILRAGDKDDITEPAVCALRHLTSRHPEAEMAQNSVRLNYGIPAIVKLLNQPNQWPLVKATIGLIRNLALCPANHAPLQEAAVIPRLVQLLVKAHQDAQRHVAAGTQQPYTDGVRMEEIVEGCTGALHILARDPMNRMEIFRLNTIPLFVQLLYSSVENIQRVAAGVLCELAQDKEAADAIDAEGASAPLMELLHSRNEGTATYAAAVLFRISEDKNPDYRKRVSVELTNSLFKHDPAAWEAAQSMIPINEPYGDDMDATYRPMYSSDVPLDPLEMHMDMDGDYPIDTYSDGLRPPYPTADHMLA
Consider B1, for which the binding entry is “binds”.
